# Measured values as given in PubChem BioAssay AID445 (National Center for Advancing Translational Sciences (NCATS), 2006).
# Some of the results follow. Shown are side measurements of this screen, not its main read-out; they come without a call. Compounds called inactive in the main read-out are mostly missing here. The note in brackets gives the kind of curve behind each potency; many fits are weak.
# Assay: IkB Signaling
# Settings: ABC-DLBCL IkBa-CBG/CBR dual luciferase ratio (green luciferase fused to IkBa over red control in OCI-Ly3 lymphoma cells), 4 h
# Summary of the method: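 Curves were fitted separately to fusion (green), unfused (red) and ratio luminescence, then classed by r2, magnitude and activity. Cells: OCI-Ly3, 4 h compound plus doxycycline at 37C; 10 uM MG-132 defined full response.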
# [1] = measured here: control luc red channel unless noted
smiles,measurement,setting,value
Cc1[nH]c2ccccc2c1C(c1ccccc1)c1ccc(Cl)s1 (configuration not stated),AC50,[1],"20 µM [falling, partial curve]"
COc1cccc(CNC(=O)Cc2ccc(NC(=O)N3CCSc4ncccc43)cc2)c1OC,AC50,[1],"0.0251 µM [falling, full curve, poor fit]"
Cc1cccc(N2CCN(C(=O)CN3C(=O)COc4ccc(S(=O)(=O)N5CCC(C)CC5)cc43)CC2C)c1 (configuration not stated),AC50,[1],"12.6 µM [falling, partial curve]"
CCOC(=O)N1CCN(Cc2nc3cc([N+](=O)[O-])ccc3n2C(C)C)CC1,AC50,[1],"39.8 µM [falling, single point]"
CC(C)c1cc(Nc2cccc(O)c2)cc(C(C)C)c1O,AC50,[1],"15.8 µM [falling, partial curve]"
O=C(Cc1coc2cc3c(cc12)CCC3)OCc1cc(=O)n2c(n1)sc1ccccc12,AC50,[1],"10 µM [falling, partial curve]"
COc1ccc(C(CNC(=O)c2ccc(F)cc2)N2CCCC2)cc1 (configuration not stated),AC50,[1],"0.316 µM [rising, full curve]"
CC(=O)N1CCc2c(sc3c2c(=O)n(Cc2ccccc2)c(=O)n3Cc2ccccc2F)C1,AC50,[1],"39.8 µM [falling, single point]"
O=C(Cc1cccs1)Nc1c(C(=O)Nc2ccc(F)cc2)oc2ccccc12,AC50,[1],"5.01 µM [falling, partial curve]"
Cc1ccc(OCc2nnc(SCc3nc4ccccc4[nH]3)n2Cc2ccco2)cc1,AC50,[1],"6.31 µM [falling, partial curve]"
COc1ccc(CCC(=O)NCc2ccc3c(c2)CCN3C(=O)c2ccccc2)cc1,AC50,[1],"15.8 µM [falling, single point]"
Cc1cnc(NC(=O)CSc2nc3ccccc3c(=O)[nH]2)s1,AC50,[1],"10 µM [falling, partial curve]"
CC(C)(C)OC(=O)N1CCc2nc(N3CCN(c4ncccn4)CC3)ncc2C1,AC50,[1],"12.6 µM [falling, single point]"
CCS(=O)(=O)N1CCc2cc(C(=O)N3CCN(c4ccccc4OC)CC3)ccc21,AC50,[1],"10 µM [falling, partial curve]"
COC(=O)c1cccc(S(=O)(=O)N2CCN(c3nc4ccccc4s3)CC2)c1,AC50,[1],"20 µM [rising, partial curve]"
COC(=O)CSc1nnc(-c2ccc(NS(=O)(=O)c3ccccc3)cc2)o1,AC50,[1],"25.1 µM [falling, partial curve]"
COc1ccc(-c2n[nH]c(C)c2-c2cnn(-c3ccccc3)c2)c(O)c1,AC50,[1],"15.8 µM [falling, partial curve]"
Cc1oc2cc3oc(=O)c(CC(=O)NCc4ccccc4)c(C)c3cc2c1C,AC50,[1],"15.8 µM [falling, single point]"
O=C1c2ccccc2C(=O)C1c1ccc2ccccc2n1,AC50,[1],"2.51 µM [falling, full curve]"
COc1cccc(NC(=O)c2oc3ccccc3c2NC(=O)c2ccc(F)c(F)c2)c1,AC50,[1],"39.8 µM [falling, single point]"
O=C(CSc1nc2nccnc2c(=O)n1CCc1c[nH]c2ccccc12)Nc1ccccc1,AC50,[1],"39.8 µM [falling, single point]"
O=C(NC1CC(=O)N(c2ccccc2)C1)C(c1ccccc1)c1ccccc1 (configuration not stated),AC50,[1],"31.6 µM [falling, single point]"
Cc1c(CCNC(=O)c2ccc(Br)o2)sc2nc(-c3ccc(Cl)cc3)nn12,AC50,measured here: IkB-luc green channel,"39.8 µM [falling, single point]"
same,AC50,measured here: control luc red channel,"20 µM [falling, partial curve]"
Cc1ccc(C(=O)N2CCCCC2)cc1NC(=O)c1nsc2ccccc12,AC50,[1],"39.8 µM [falling, partial curve]"
CCN(CC)CC(=O)c1ccc(-c2ccccc2)cc1,AC50,[1],"12.6 µM [falling, partial curve]"
O=C(Nc1ccccc1C(F)(F)F)C1CCN(S(=O)(=O)Cc2ccccc2)CC1,AC50,[1],"25.1 µM [falling, partial curve]"
CCOC(=O)Cc1csc(NC(=O)c2ccc3c(c2)OCO3)n1,AC50,[1],"7.94 µM [falling, partial curve]"
O=C(Cn1cc(C(=O)C(F)(F)F)c2ccccc21)N1CCCCCC1,AC50,[1],"12.6 µM [falling, partial curve]"
Cn1c(N)c(C(=O)COC(=O)CCCc2c[nH]c3ccccc23)c(=O)n(C)c1=O,AC50,[1],"15.8 µM [falling, partial curve]"
Cc1c(C(=O)OC2CCC(C)CC2)[nH]c2c1C(=O)CCC2 (configuration not stated),AC50,[1],"25.1 µM [falling, partial curve]"
O=C(COc1ccc2ccccc2c1)NC1CC(=O)N(c2ccc(F)cc2)C1 (configuration not stated),AC50,[1],"3.16 µM [rising, full curve, poor fit]"
CC1CCCCN1CCCNC(=O)c1cc(Sc2cccc(Cl)c2)nc2ccccc12 (configuration not stated),AC50,[1],"39.8 µM [falling, single point]"
Clc1ccc(-c2nc3nc4ccccc4nc3n2Cc2ccco2)cc1,AC50,[1],"0.0398 µM [falling, full curve]"
Cc1nc2sccn2c(=O)c1CCN1CCC(=C(c2ccccc2)c2ccc(F)cc2)CC1,AC50,[1],"31.6 µM [falling, partial curve]"
CCNC(=O)c1ccc2c(c1)nc1n2CCCCC1,AC50,[1],"1.58 µM [rising, full curve, poor fit]"
O=C(CN1CCN(c2ccccn2)CC1)Nc1ccc2ccccc2c1,AC50,[1],"31.6 µM [falling, single point]"
COc1cccc(N2CCN(C(=O)C3CCCN(S(=O)(=O)c4cccc5nsnc45)C3)CC2)c1 (configuration not stated),AC50,[1],"25.1 µM [falling, partial curve]"
CCOc1ccc(C(=O)c2cn(CC(=O)Nc3ccc4c(c3)OCO4)c3ccc(OC)cc3c2=O)cc1,AC50,[1],"15.8 µM [falling, partial curve]"
COc1ccc(OC)c(NC(=O)Cn2c(=O)c3cccn3c3ccccc32)c1,AC50,[1],"10 µM [falling, partial curve]"
Cc1ccc(S(=O)(=O)c2cn(CC(=O)Nc3cccc(Cl)c3)c3ccccc3c2=O)cc1,AC50,[1],"12.6 µM [falling, partial curve]"
Cc1ccc(Cl)cc1NC(=O)CSc1nc2ccccc2c2nc(-c3ccccc3)nn12,AC50,[1],"39.8 µM [rising, partial curve, poor fit]"

# Looked up one by one from the entries so far (2):
smiles,measurement,setting,value
Cc1ccc(Cl)cc1NC(=O)CSc1nc2ccccc2c2nc(-c3ccccc3)nn12,AC50,[1],"39.8 µM [rising, partial curve, poor fit]"
CCOc1ccc(C(=O)c2cn(CC(=O)Nc3ccc4c(c3)OCO4)c3ccc(OC)cc3c2=O)cc1,AC50,[1],"15.8 µM [falling, partial curve]"
